± gives the standard deviation of the averaged measurements. Most entries show no effect beyond the scatter of the controls.
What was measured:
Test in all cases: level (log10 ratio to DMSO vehicle control); higher = higher biomarker level / cell amount than vehicle control
[1] = compound: C=C(C)C(=O)OCCC(F)(F)C(F)(F)C(F)(F)C(F)(F)C(F)(C(F)(F)F)C(F)(F)F [(Perfluoro-5-methylhexyl)ethyl 2-methylprop-2-enoate]; conditions: in DMSO
Procedure: (§1)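 BioMAP Diversity Plus panel of 12 human primary cell co-culture systems (3C, 4H, LPS, SAg, BT, BF4T, BE3C, CASM3C, HDF3CGF, KF3CT, MyoF, Mphg). Compounds were added 1 h before stimulation and left for 24 h (MyoF 48 h; BT 72 h for soluble read-outs or 6 d for IgG). Biomarkers were read by ELISA, cytotoxicity by SRB, PBMC viability and proliferation by Alamar Blue. Each well value was divided by the mean of 8 DMSO control wells on the same plate and log10 transformed; duplicate blinded samples were tested at 4 concentrations.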

[2] = compound: C=C(C)C(=O)OCCC(F)(F)C(F)(F)C(F)(F)C(F)(F)C(F)(F)C(F)(F)C(F)(F)C(F)(F)F [8:2 Fluorotelomer methacrylate]; conditions: in DMSO
Procedure: as §1

[3] = compound: COC(=O)CCC(F)(F)C(F)(F)C(F)(F)C(F)(F)F [Methyl 2H,2H,3H,3H-perfluoroheptanoate]; conditions: 2200 nM; in DMSO
Procedure: as §1

[4] = compound: FC(F)(F)C(F)(F)C(F)(F)C(F)(F)C(F)(F)CCI [1-Iodo-1H,1H,2H,2H-perfluoroheptane]; conditions: 2200 nM; in DMSO
Procedure: as §1

[5] = compound: NC(=O)C(F)(F)C(F)(F)C(F)(F)C(F)(F)C(N)=O [Octafluoroadipamide]; conditions: 2200 nM; in DMSO
Procedure: as §1

[6] = compound: NC(=O)C(F)(F)C(F)(F)C(F)(F)C(F)(F)F [Nonafluoropentanamide]; conditions: 2200 nM; in DMSO
Procedure: as §1

[7] = compound: NS(=O)(=O)C(F)(F)C(F)(F)C(F)(F)C(F)(F)C(F)(F)C(F)(F)F [Perfluorohexanesulfonamide]; conditions: 2200 nM; in DMSO
Procedure: as §1

[8] = compound: O=C(O)C(F)(F)C(F)(F)C(=O)O [Tetrafluorosuccinic acid]; conditions: 2200 nM; in DMSO
Procedure: as §1

[9] = compound: O=C(O)C(F)(F)C(F)(F)C(F)(F)C(F)(F)C(F)(F)C(F)(F)C(F)(F)C(F)(F)Cl [9-Chloro-perfluorononanoic acid]; conditions: in DMSO
Procedure: as §1

[10] = compound: O=C(O)CCC(F)(F)C(F)(F)C(F)(F)C(F)(F)C(F)(F)F [2H,2H,3H,3H-Perfluorooctanoic acid]; conditions: 2200 nM; in DMSO
Procedure: as §1

[11] = compound: O=S(=O)(O)C(F)(F)C(F)(F)OC(F)(F)C(F)(F)F [Perfluoro(2-ethoxyethane)sulfonic acid]; conditions: 2200 nM; in DMSO
Procedure: as §1

[12] = compound: O=S(=O)(O)CCC(F)(F)C(F)(F)C(F)(F)C(F)(F)C(F)(F)C(F)(F)F [6:2 Fluorotelomer sulfonic acid]; conditions: in DMSO
Procedure: as §1

[13] = compound: OC(C(F)(F)F)(C(F)(F)F)C(O)(C(F)(F)F)C(F)(F)F [Perfluoropinacol]; conditions: in DMSO
Procedure: as §1

[14] = compound: OCCC(F)(F)C(F)(F)C(F)(F)C(F)(F)F [4:2 Fluorotelomer alcohol]; conditions: 2200 nM; in DMSO
Procedure: as §1

Test System | level (log10) ([1]; 740 nM) | level (log10) ([1]; 2200 nM) | level (log10) ([1]; 6700 nM) | level (log10) ([1]; 20000 nM) | level (log10) ([2]; 740 nM) | level (log10) ([2]; 2200 nM) | level (log10) [3] | level (log10) [4] | level (log10) [5] | level (log10) [6] | level (log10) [7] | level (log10) [8] | level (log10) ([9]; 2200 nM) | level (log10) ([9]; 6700 nM) | level (log10) ([9]; 20000 nM) | level (log10) [10] | level (log10) [11] | level (log10) ([12]; 2200 nM) | level (log10) ([12]; 6700 nM) | level (log10) ([12]; 20000 nM) | level (log10) ([12]; 60000 nM) | level (log10) ([13]; 2200 nM) | level (log10) ([13]; 6700 nM) | level (log10) ([13]; 20000 nM) | level (log10) [14]
HDF3CGF:CCL2/MCP-1 | -0.0225 ± 0.04 | -0.017 ± 0.0071 | -0.0335 ± 0.0092 | -0.024 ± 0.023 | -0.0115 ± 0.0078 | -0.006 ± 0.0014 | -0.0125 ± 0.042 | 0.0085 ± 0.028 | -0.0005 ± 0.04 | -0.019 ± 0.0099 | -0.009 ± 0.027 | -0.0105 ± 0.00071 | 0.0105 ± 0.011 | 0.0205 ± 0.022 | -0.013 ± 0.021 | 0.011 ± 0.037 | 0.0265 ± 0.0064 | 0.0145 ± 0.04 | 0.0075 ± 0.019 | 0.0085 ± 0.021 | 0.008 ± 0.014 | 0.013 ± 0.0071 | 0.0595 ± 0.0064 | 0.09 ± 0.0085 | -0.0475 ± 0.088
BE3C:HLA-DR | -0.0015 ± 0.016 | -0.0065 ± 0.015 | -0.0115 ± 0.0078 | -0.0045 ± 0.0078 | -0.0015 ± 0.012 | -0.0095 ± 0.0035 | 0.0025 ± 0.022 | -0.005 ± 0.0014 | 0.0135 ± 0.015 | 0.0165 ± 0.0035 | -0.0035 ± 0.0064 | -0.0055 ± 0.04 | -0.0155 ± 0.044 | -0.0575 ± 0.025 | -0.445 ± 0.052 | 0.0015 ± 0.0064 | -0.0095 ± 0.011 | -0.0055 ± 0.0021 | -0.0135 ± 0.021 | -0.0175 ± 0.012 | -0.024 ± 0.0099 | 0.001 ± 0.0085 | -0.0145 ± 0.0064 | -0.0565 ± 0.019 | -0.0035 ± 0.042
HDF3CGF:M-CSF | -0.011 | -0.013 ± 0.0085 | -0.0175 ± 0.0078 | -0.0175 ± 0.0035 | -0.0095 ± 0.005 | -0.007 ± 0.027 | 0.0085 ± 0.042 | -0.004 ± 0.0071 | 0.009 ± 0.017 | 0.0045 ± 0.011 | 0.0375 ± 0.00071 | 0.015 ± 0.04 | -0.0435 ± 0.06 | -0.058 ± 0.041 | -0.089 ± 0.025 | -0.0665 ± 0.1 | -0.021 ± 0.031 | -0.0495 ± 0.0035 | -0.0255 ± 0.073 | -0.044 ± 0.068 | -0.082 ± 0.085 | -0.0325 ± 0.08 | -0.024 ± 0.055 | -0.239 ± 0.049 | -0.008 ± 0.071
4H:CCL26/Eotaxin-3 | 0.02 ± 0.073 | 0.018 ± 0.033 | 0.042 ± 0.058 | 0.039 ± 0.02 | -0.0165 ± 0.043 | -0.022 ± 0.023 | -0.0215 ± 0.012 | -0.0055 ± 0.0064 | 0.0645 ± 0.042 | -0.012 ± 0.035 | 0.0045 ± 0.0064 | -0.0145 ± 0.0021 | -0.006 ± 0.025 | -0.04 ± 0.011 | 0.016 ± 0.037 | 0.025 ± 0.023 | 0.0425 ± 0.013 | 0.0355 ± 0.0064 | 0.017 ± 0.0014 | -0.0285 ± 0.023 | -0.095 ± 0.018 | 0.0005 ± 0.033 | -0.03 ± 0.048 | -0.179 ± 0.037 | -0.0085 ± 0.0064
BF4T:Keratin 8/18 | -0.031 ± 0.0085 | -0.0345 ± 0.0092 | -0.024 | -0.0115 ± 0.0078 | 0.001 ± 0.027 | -0.0125 ± 0.019 | 0.01 ± 0.016 | 0.0145 ± 0.011 | 0.013 ± 0.013 | -0.0025 ± 0.018 | 0.0085 ± 0.023 | -0.019 ± 0.024 | 0.016 ± 0.044 | -0.004 ± 0.0057 | -0.0105 ± 0.0035 | 0.008 ± 0.018 | 0.0185 ± 0.005 | 0.0105 ± 0.03 | 0.0075 ± 0.019 | -0.0065 ± 0.016 | 0.0045 ± 0.011 | 0.005 ± 0.051 | -0.013 ± 0.0099 | -0.036 ± 0.0071 | 0.002 ± 0.0028
CASM3C:M-CSF | 0.012 ± 0.064 | -0.022 ± 0.0085 | -0.009 ± 0.0085 | 0.0195 ± 0.036 | 0.0025 ± 0.015 | -0.0215 ± 0.018 | 0.023 ± 0.031 | 0.014 ± 0.0028 | 0.016 ± 0.048 | 0.015 ± 0.027 | 0.0205 ± 0.049 | 0.0125 ± 0.036 | 0.0025 ± 0.035 | -0.0235 ± 0.0035 | -0.0315 ± 0.011 | 0.015 ± 0.052 | 0.0055 ± 0.042 | 0.009 ± 0.047 | -0.011 ± 0.044 | -0.002 ± 0.0085 | 0.002 ± 0.037 | 0.03 ± 0.03 | 0.0505 ± 0.0021 | 0.0315 ± 0.0092 | -0.012 ± 0.014
LPS:CD62E/E-Selectin | 0.044 ± 0.013 | 0.0125 ± 0.035 | 0.006 ± 0.0099 | 0.0095 ± 0.012 | 0.0055 ± 0.0064 | 0.0125 ± 0.00071 | -0.0245 ± 0.0092 | -0.0045 ± 0.00071 | 0.001 ± 0.023 | 0.0065 ± 0.0064 | -0.0055 ± 0.016 | 0.011 ± 0.051 | 0.017 ± 0.05 | -0.0095 ± 0.033 | 0.034 ± 0.0057 | 0.016 ± 0.042 | 0.011 ± 0.067 | 0.057 ± 0.0099 | 0.034 ± 0.021 | 0.007 ± 0.014 | 0.027 ± 0.023 | -0.008 ± 0.016 | 0.003 ± 0.0085 | -0.027 ± 0.028 | 0 ± 0.013
MyoF:Decorin | -0.0155 ± 0.011 | -0.0095 ± 0.028 | -0.006 ± 0.037 | 0.008 ± 0.052 | -0.005 ± 0.02 | -0.015 ± 0.0057 | 0.006 ± 0.025 | -0.038 ± 0.042 | 0.001 ± 0.027 | 0.008 ± 0.025 | -0.03 ± 0.16 | 0.013 ± 0.02 | -0.016 ± 0.028 | 0.012 ± 0.0014 | -0.0045 ± 0.05 | -0.005 ± 0.0042 | -0.006 ± 0.0085 | -0.0025 ± 0.005 | 0.0105 ± 0.0035 | 0.0015 ± 0.00071 | 0.0435 ± 0.0021 | -0.0265 ± 0.028 | -0.041 ± 0.024 | -0.034 ± 0.025 | 0.018 ± 0.028
MyoF:Collagen III | -0.028 ± 0.0014 | -0.028 ± 0.0057 | -0.0135 ± 0.052 | -0.0455 ± 0.04 | -0.0175 ± 0.0078 | -0.0065 ± 0.011 | -0.023 ± 0.02 | 0.0005 ± 0.021 | -0.0025 ± 0.00071 | -0.04 ± 0.013 | 0 ± 0.013 | -0.0185 ± 0.0078 | -0.0245 ± 0.013 | -0.033 ± 0.027 | -0.498 ± 0.0085 | -0.0225 ± 0.023 | -0.0095 ± 0.005 | -0.021 ± 0.034 | -0.011 ± 0.013 | -0.02 ± 0.017 | -0.0055 ± 0.015 | -0.0255 ± 0.0021 | -0.0405 ± 0.011 | -0.136 ± 0.0014 | 0.0045 ± 0.016
3C:CD141/Thrombomodulin | 0.034 ± 0.064 | 0.0275 ± 0.059 | 0.041 ± 0.033 | 0.005 ± 0.033 | 0 ± 0.03 | -0.0125 ± 0.013 | -0.023 ± 0.023 | -0.0175 ± 0.0035 | 0.0555 ± 0.073 | -0.0025 ± 0.028 | -0.021 ± 0.041 | -0.0035 ± 0.019 | 0.0025 ± 0.044 | -0.017 ± 0.016 | -0.008 ± 0.02 | -0.005 ± 0.058 | 0.0145 ± 0.018 | 0.0055 ± 0.033 | -0.0065 ± 0.05 | -0.0475 ± 0.019 | -0.0415 ± 0.033 | -0.019 ± 0.02 | -0.0165 ± 0.0021 | -0.033 ± 0.034 | -0.0145 ± 0.0078
